Results from article doi:10.1101/2022.01.12.475930.
Results are given in words; binding and its absence hold for the method and conditions named. For part of these data: Binding seen in cells or lysates may run through a third protein. Some results given as binding are weak or reduced against the parent protein; the word gives no strength. For part of these data: Tags and fused reporters may be left off the sequences shown.

T1: PPT1 (human (endogenous in HEK293)), P50897
T1 chain: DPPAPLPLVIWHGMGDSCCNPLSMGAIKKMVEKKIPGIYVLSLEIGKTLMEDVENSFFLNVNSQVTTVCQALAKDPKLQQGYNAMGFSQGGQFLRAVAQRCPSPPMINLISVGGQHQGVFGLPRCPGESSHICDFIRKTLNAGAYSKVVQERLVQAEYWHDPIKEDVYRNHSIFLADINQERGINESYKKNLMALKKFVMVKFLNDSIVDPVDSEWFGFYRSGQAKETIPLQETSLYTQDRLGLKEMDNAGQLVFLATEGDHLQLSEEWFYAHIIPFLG

T2: FLOT2-FLAG (UniProt Q14254)
T2 sequence: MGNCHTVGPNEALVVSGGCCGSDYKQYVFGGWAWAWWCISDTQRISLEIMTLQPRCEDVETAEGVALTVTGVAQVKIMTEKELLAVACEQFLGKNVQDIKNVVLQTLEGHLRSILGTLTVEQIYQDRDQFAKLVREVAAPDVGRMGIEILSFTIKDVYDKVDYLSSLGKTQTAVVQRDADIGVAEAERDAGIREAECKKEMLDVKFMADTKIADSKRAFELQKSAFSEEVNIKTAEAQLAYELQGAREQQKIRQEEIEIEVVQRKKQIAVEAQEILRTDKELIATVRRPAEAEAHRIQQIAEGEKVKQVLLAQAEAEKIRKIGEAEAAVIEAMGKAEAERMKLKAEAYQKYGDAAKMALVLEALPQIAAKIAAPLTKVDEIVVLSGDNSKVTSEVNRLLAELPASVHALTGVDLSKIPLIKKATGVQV


Columns and labels:
[1] = target: T1, PPT1 (human (endogenous in HEK293)), …; assay: cross-linking; conditions: remark: other sources report otherwise
FLOT2-FLAG [2] = target: T2, FLOT2-FLAG; assay: native gel or EMSA
FLOT2-FLAG [3] = target: T2, FLOT2-FLAG; assay: cross-linking

binding [1] | binding (FLOT2-FLAG [2]) | binding (FLOT2-FLAG [3]) | Binder
binds | – | – | PPT1, P50897 28-306 (enzyme) DPPAPLPLVIWHGMGDSCCNPLSMGAIKKMVEKKIPGIYVLSLEIGKTLMEDVENSFFLNVNSQVTTVCQALAKDPKLQQGYNAMGFSQGGQFLRAVAQRCPSPPMINLISVGGQHQGVFGLPRCPGESSHICDFIRKTLNAGAYSKVVQERLVQAEYWHDPIKEDVYRNHSIFLADINQERGINESYKKNLMALKKFVMVKFLNDSIVDPVDSEWFGFYRSGQAKETIPLQETSLYTQDRLGLKEMDNAGQLVFLATEGDHLQLSEEWFYAHIIPFLG
– | binds | binds | FLOT1-FLAG (protein, UniProt O75955 1-427) MFFTCGPNEAMVVSGFCRSPPVMVAGGRVFVLPCIQQIQRISLNTLTLNVKSEKVYTRHGVPISVTGIAQVKIQGQNKEMLAAACQMFLGKTEAEIAHIALETLEGHQRAIMAHMTVEEIYKDRQKFSEQVFKVASSDLVNMGISVVSYTLKDIHDDQDYLHSLGKARTAQVQKDARIGEAEAKRDAGIREAKAKQEKVSAQYLSEIEMAKAQRDYELKKAAYDIEVNTRRAQADLAYQLQVAKTKQQIEEQRVQVQVVERAQQVAVQEQEIARREKELEARVRKPAEAERYKLERLAEAEKSQLIMQAEAEAASVRMRGEAEAFAIGARARAEAEQMAKKAEAFQLYQEAAQLDMLLEKLPQVAEEISGPLTSANKITLVSSGSGTMGAAKVTGEVLDILTRLPESVERLTGVSISQVNHKPLRTA
